In PMC4525167 one finds binding data, which are given here for two substances.

By UniProt entry, the sequences of proteins in these tests, tags left out.
UniProt P01106: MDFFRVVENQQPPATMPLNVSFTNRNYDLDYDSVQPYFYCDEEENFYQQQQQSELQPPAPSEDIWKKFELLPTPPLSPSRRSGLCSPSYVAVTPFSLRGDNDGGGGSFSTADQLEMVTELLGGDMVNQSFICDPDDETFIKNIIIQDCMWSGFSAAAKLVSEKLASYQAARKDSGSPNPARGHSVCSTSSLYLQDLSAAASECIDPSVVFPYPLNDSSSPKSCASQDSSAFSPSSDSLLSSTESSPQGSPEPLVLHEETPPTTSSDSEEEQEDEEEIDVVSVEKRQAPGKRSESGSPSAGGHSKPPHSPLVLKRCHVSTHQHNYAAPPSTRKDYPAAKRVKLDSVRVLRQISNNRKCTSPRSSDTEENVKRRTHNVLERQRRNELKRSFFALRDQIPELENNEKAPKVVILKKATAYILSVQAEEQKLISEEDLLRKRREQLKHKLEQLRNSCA
UniProt Q8TEK3: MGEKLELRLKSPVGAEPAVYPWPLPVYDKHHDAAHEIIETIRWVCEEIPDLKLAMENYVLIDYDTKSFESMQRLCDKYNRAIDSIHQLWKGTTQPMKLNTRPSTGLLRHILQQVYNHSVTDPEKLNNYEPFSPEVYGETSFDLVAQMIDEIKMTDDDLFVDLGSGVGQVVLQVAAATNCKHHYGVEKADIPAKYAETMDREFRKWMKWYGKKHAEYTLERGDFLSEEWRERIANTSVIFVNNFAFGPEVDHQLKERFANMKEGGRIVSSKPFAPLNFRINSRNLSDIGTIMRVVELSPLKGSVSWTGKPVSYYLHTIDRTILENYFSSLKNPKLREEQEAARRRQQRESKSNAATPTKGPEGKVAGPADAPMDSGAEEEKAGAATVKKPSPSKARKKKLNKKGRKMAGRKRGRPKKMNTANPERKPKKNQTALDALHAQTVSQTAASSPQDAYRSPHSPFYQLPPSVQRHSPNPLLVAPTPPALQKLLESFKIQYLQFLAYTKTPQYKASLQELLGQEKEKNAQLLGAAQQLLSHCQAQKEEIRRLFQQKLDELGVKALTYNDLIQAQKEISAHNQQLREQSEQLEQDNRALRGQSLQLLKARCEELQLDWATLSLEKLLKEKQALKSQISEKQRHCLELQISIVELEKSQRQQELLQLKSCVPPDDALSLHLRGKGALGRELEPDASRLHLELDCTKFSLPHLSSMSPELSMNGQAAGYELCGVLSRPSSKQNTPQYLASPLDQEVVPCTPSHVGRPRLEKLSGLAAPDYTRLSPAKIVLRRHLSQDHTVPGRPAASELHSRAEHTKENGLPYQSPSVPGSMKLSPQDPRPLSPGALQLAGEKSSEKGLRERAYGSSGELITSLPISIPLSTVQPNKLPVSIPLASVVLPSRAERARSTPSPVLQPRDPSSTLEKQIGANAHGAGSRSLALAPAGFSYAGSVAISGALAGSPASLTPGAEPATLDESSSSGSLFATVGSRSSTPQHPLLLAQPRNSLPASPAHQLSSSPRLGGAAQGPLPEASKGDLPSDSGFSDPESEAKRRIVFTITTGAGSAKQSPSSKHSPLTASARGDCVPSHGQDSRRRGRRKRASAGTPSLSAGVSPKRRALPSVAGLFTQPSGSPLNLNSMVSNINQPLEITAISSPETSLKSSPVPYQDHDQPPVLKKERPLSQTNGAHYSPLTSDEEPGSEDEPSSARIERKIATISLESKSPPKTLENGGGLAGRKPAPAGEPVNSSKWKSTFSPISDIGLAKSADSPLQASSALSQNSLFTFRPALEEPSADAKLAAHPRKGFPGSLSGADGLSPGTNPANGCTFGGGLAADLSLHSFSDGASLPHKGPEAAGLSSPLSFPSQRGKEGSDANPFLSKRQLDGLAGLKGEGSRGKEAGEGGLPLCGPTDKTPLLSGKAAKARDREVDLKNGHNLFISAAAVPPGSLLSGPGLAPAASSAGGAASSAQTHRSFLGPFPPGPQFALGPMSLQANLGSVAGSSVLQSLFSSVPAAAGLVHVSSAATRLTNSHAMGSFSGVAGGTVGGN
UniProt Q09472: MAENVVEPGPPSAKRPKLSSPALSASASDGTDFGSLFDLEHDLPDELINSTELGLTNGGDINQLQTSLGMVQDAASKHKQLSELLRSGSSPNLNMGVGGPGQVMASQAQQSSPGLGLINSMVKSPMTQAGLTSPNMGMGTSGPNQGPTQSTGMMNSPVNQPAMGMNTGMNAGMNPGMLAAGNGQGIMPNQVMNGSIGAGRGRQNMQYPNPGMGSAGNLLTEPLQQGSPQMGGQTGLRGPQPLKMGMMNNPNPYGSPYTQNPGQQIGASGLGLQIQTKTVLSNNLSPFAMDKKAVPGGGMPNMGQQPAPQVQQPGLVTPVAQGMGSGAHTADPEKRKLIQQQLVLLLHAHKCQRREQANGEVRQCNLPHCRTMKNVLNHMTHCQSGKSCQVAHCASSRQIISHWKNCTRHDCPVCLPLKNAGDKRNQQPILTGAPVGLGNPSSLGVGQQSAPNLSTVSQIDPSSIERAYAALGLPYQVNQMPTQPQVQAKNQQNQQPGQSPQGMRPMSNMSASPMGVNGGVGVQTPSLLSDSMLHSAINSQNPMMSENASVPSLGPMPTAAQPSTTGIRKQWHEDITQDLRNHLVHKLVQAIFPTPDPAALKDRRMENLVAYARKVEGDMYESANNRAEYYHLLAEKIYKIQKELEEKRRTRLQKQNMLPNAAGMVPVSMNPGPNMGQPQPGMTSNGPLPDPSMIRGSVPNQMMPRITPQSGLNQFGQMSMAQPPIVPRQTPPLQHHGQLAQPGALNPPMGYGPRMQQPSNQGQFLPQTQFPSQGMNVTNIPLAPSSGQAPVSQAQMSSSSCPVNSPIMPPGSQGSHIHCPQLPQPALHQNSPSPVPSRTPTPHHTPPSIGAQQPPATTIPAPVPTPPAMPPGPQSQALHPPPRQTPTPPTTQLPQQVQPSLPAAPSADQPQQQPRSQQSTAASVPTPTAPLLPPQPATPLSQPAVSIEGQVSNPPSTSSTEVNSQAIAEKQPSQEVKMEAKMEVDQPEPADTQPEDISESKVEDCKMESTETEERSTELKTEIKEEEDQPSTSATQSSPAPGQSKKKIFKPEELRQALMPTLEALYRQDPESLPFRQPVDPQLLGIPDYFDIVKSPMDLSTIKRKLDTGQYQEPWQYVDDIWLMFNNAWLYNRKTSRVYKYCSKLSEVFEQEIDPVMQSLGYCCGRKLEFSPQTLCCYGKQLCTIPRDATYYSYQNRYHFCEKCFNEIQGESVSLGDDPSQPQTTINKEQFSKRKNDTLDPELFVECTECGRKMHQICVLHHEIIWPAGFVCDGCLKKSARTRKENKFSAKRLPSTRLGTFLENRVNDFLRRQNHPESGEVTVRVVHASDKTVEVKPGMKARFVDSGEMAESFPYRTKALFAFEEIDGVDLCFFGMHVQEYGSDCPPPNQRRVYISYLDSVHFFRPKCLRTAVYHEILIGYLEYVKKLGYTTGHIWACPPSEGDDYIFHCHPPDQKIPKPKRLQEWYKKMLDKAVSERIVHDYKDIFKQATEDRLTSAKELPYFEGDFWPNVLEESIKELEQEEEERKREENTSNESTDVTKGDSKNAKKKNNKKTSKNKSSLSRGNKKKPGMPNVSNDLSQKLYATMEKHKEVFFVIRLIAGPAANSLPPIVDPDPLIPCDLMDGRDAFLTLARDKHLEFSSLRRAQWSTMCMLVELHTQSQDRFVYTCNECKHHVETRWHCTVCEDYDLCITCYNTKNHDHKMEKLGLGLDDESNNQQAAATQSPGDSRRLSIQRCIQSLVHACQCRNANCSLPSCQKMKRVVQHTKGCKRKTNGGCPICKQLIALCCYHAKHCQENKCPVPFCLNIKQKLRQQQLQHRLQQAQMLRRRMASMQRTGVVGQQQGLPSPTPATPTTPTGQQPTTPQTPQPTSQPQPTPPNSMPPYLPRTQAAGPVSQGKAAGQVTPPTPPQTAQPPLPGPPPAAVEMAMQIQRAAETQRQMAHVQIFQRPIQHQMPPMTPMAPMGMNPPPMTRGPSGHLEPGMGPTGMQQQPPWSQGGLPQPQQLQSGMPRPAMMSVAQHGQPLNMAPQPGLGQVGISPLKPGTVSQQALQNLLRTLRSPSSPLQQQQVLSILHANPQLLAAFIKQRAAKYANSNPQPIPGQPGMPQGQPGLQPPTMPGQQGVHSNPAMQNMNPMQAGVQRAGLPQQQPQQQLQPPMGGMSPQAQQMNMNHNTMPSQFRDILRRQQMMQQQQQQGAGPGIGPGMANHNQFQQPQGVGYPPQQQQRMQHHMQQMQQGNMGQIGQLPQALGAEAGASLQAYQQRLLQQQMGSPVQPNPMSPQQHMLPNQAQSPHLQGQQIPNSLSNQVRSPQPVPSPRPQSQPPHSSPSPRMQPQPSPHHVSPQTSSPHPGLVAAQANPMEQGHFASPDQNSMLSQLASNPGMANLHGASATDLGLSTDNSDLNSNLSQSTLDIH

No constants are given. Whether binding was seen depends on the method and setting. In cells and extracts the contact can be indirect. Some entries that bind do so weakly or less than the wild type.

One assay concerns the target c-Myc (UniProt P01106). As to the kind of experiment: co-IP; lysates (1-2 mg) of 293T cells transfected with DOT1L and/or c-Myc constructs, in RIPA buffer (50 mM Tris pH 7.4, 150 mM NaCl, 1 mM EDTA, 1% NP-40, 0.25% sodium deoxycholate); antibody (1 ug) overnight at 4 °C, protein A or G-agarose 2 h at 4 °C, washed with ice-cold PBS; immunoblotting.
Another assay has as its target GST-c-Myc (UniProt P01106). The experiment in a line: pull-down; GST-c-Myc (Abnova) held by anti-c-Myc antibody on protein A-agarose beads, reacted with lysates of 293T cells transfected with pCI-neo-DOT1L or empty vector; bound DOT1L detected by immunoblotting; only the target purified.
Assay [1] has as its target Disruptor of telomeric silencing-1-like (DOT1L) (human) (UniProt Q8TEK3). As to the kind of experiment: co-IP; lysates (1-2 mg) of 293T cells transfected with DOT1L and/or c-Myc constructs, in RIPA buffer (50 mM Tris pH 7.4, 150 mM NaCl, 1 mM EDTA, 1% NP-40, 0.25% sodium deoxycholate); antibody (1 ug) overnight at 4 °C, protein A or G-agarose 2 h at 4 °C, washed with ice-cold PBS; immunoblotting. (In western blotting, separated proteins are transferred to a membrane and probed.)

For the substance “Disruptor of telomeric silencing-1-like (DOT1L) (from UniProt Q8TEK3 1-1537) (enzyme)”, the binding result with c-Myc and with GST-c-Myc was “binds” throughout.

As to “p300 acetyltransferase (from UniProt Q09472 1-2414) (enzyme)”, the binding entry (in assay [1]; with c-Myc) was “binds” each time.
